This data set deals with T1, BrRCO (UniProt A0ABQ7KTI8).
T1 sequence (looked up, limits assumed): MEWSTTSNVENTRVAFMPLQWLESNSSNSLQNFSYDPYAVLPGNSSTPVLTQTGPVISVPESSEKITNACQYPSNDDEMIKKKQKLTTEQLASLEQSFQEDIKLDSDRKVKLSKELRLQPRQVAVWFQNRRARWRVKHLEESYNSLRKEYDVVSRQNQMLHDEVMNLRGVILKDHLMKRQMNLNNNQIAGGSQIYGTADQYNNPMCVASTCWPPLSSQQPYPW
The data set is described as follows: EMSA. As to conditions: unlabeled probe used as competitor; EMSA: room temperature, 30 min; non-denaturing 6% PAGE, 0.5x TBE, 80 V, 1 h, 4 C; binding buffer, salt and pH not given; recombinant protein; protein details: His (pET30a); label: 5' biotin. For orientation: Mobility shift assays separate free from complexed probe on a gel.

The exact form of at least one protein or probe is not confirmed. At least one verdict was read from the data and is not stated in words by the source. Where a protein sequence is shown, tags need not be part of it.

Turning to “AATTTTGATTATTATAGATG (double strand) [BrACP5 probe 2]”, the binding result is reported as “binds”. In the case of “TTAATCAAATAATTCTGATT (double strand) [BrACP5 probe 1]” it was “binds”.

For the origin of these results see PMC11986587.
